For 29 compounds, survivor count and T/C results are on record in PubChem BioAssay AID256 (DTP/NCI, 2004).

This test relates to CD2F1 mice, L1210 leukemia ip, survival T/C. Description: NCI In Vivo Anticancer Drug Screen. Data for tumor model L1210 Leukemia (intraperitoneal) in CD2F1 (CDF1) mice. As to conditions: higher T/C = longer survival. A digest of the protocol:
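In this screen, transplantable tumors were grown in mice given either the compound or its vehicle. Results were expressed as the treated measurement relative to the control measurement.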

The mark [1] stands for this setting: T/C endpoint: mean survival time, dose: 100.0 mg/kg/injection, schedule: Q04DX003 (ip), vehicle: saline with Tween-80.
[2] abbreviates: T/C endpoint: mean survival time, dose: 400.0 mg/kg/injection, schedule: Q04DX003 (ip), vehicle: saline with Tween-80.
Setting [3] is: T/C endpoint: mean survival time, dose: 100.0 mg/kg/injection, schedule: Q01DX009 (ip), vehicle: saline with Tween-80.
Where [4] appears, read: T/C endpoint: mean survival time, dose: 200.0 mg/kg/injection, schedule: Q04DX003 (ip), vehicle: saline with Tween-80.
[5] abbreviates: T/C endpoint: mean survival time, dose: 400.0 mg/kg/injection, schedule: Q01DX009 (ip), vehicle: saline with Tween-80.
The mark [6] stands for this setting: T/C endpoint: mean survival time, dose: 300.0 mg/kg/injection, schedule: Q01DX001 (ip), vehicle: saline.
Setting [7] is: T/C endpoint: mean survival time, dose: 200.0 mg/kg/injection, schedule: Q01DX009 (ip), vehicle: saline.

Structures are written as SMILES. The list is a part of this screen's results and no random one: it is rich in T/C values a quarter to a half above the control, in often repeated tests (any T/C) and in doses without a T/C. Further doses and runs are listed elsewhere. T/C gives the treated animals as a percentage of the vehicle group. Some doses have a count of surviving animals in place of a T/C: the source holds a T/C of zero for them, seemingly a mark for toxic or unscored doses. Some survivor counts are full or nearly so, which does not show that the dose was tolerated: survival well below the control is almost never listed, so the zero probably covers shortened survival too. Counts of survivors are from the toxicity check (mostly the fifth day) where no day follows; animals may have died later. Schedule codes are those of the source, taken here to give the interval after Q, in days (D) or hours (H), and the number of doses after X. Some entries hold several experiments; the results are listed from low to high. Some schedules carry Z or #; the key to these is not given. Where survival is the endpoint, the PubChem record calls one and a half times the control and up active, and a quarter to a half above the control has no call in these data; cut-offs in other NCI protocols can differ. Some T/C values are followed by the survivors on the day toxicity was checked, most often the fifth; where none is given, no animal had died by that day.

For `Nc1ccc(OC(=O)Oc2ccc(N)cc2)cc1`, the survivor count is on record as 2 of 10 (T/C endpoint: mean survival time, dose: 9.38 mg/kg/injection, schedule: Q06HX068 (ip), vehicle: other); 5 of 10 (T/C endpoint: mean survival time, dose: 37.5 mg/kg/injection, schedule: Q06HX068 (ip), vehicle: other); 6 of 10 (T/C endpoint: mean survival time, dose: 75.0 mg/kg/injection, schedule: Q06HX068 (ip), vehicle: other); 6 of 10 (T/C endpoint: mean survival time, dose: 300.0 mg/kg/injection, schedule: Q01DX005 (ip), vehicle: other); 5 of 10 (T/C endpoint: mean survival time, dose: 300.0 mg/kg/injection, schedule: Q01DX017 (ip), vehicle: other); 3 of 10 (T/C endpoint: mean survival time, dose: 300.0 mg/kg/injection, schedule: Q#A X034 (ip), vehicle: other). Moreover, the survivor count by setting is: (T/C endpoint: mean survival time, dose: 600.0 mg/kg/injection, schedule: Q01DX001 (ip), vehicle: other) 4 of 10; (T/C endpoint: mean survival time, dose: 600.0 mg/kg/injection, schedule: Q01DX005 (ip), vehicle: other) 0 of 10. The T/C is 131 % of control [8 of 10 alive] (T/C endpoint: mean survival time, dose: 75.0 mg/kg/injection, schedule: Q01DX017 (ip), vehicle: other); 137 % of control (T/C endpoint: mean survival time, dose: 75.0 mg/kg/injection, schedule: Q#A X034 (ip), vehicle: other); 125 % of control (T/C endpoint: mean survival time, dose: 150.0 mg/kg/injection, schedule: Q01DX005 (ip), vehicle: other).

As to `S=C(S)NNc1ccccc1`, the survivor count is recorded as 6 of 6 under setting [1] and 0 of 6 under setting [2].

Consider `CCOC(=O)c1ccc(Nc2nnc(-c3c(OC)cc(OC)cc3OC)s2)cc1`, for which the survivor count under setting [3] is 3 of 3.

In the case of `SCCS`, the survivor count (T/C endpoint: mean survival time, dose: 100.0 mg/kg/injection, schedule: Q04DX002 (ip), vehicle: saline with Tween-80) is 3 of 3 and the survivor count (T/C endpoint: mean survival time, dose: 400.0 mg/kg/injection, schedule: Q04DX002 (ip), vehicle: saline with Tween-80) is given as 3 of 3.

Consider `Clc1cc(CBr)c(CBr)cc1Cl`, for which the survivor count is, setting by setting: under setting [1], 3 of 6; under setting [4], 2 of 6; under setting [2], 0 of 6.

For `COC(=O)c1cn[nH]c1/N=N/N(C)C`, the T/C (T/C endpoint: mean survival time, dose: 200.0 mg/kg/injection, schedule: Q01DX009 (ip), vehicle: other) is 129 % of control.

In the case of `C/C(=C\C(=O)c1ccccc1)OB(F)F`, under setting [5], the survivor count is listed as 3 of 6.

Regarding `O=[N+]([O-])c1ccc2nc(Cl)sc2c1`, the survivor count by setting is: under setting [4], 3 of 6; under setting [2], 0 of 6.

Turning to `C=CCNc1ccc(OC)cc1`, the survivor count under setting [2] is given as 0 of 6.

For `COC1OCC(O)C(NC(=O)N(C)N=O)C1O` (stereo not drawn), the T/C is 141 % of control (T/C endpoint: mean survival time, dose: 22.0 mg/kg/injection, schedule: Q01DX009 (ip), vehicle: saline) and 135 % of control (T/C endpoint: mean survival time, dose: 33.0 mg/kg/injection, schedule: Q01DX009 (ip), vehicle: saline).

As for `CCCCCCCCCCCCCCCCOc1ccc(OCCCCCCCCC)cc1`, the survivor count by setting is: (T/C endpoint: mean survival time, dose: 100.0 mg/kg/injection, schedule: Q01DX001 (ip), vehicle: saline with Tween-80) 6 of 6; (T/C endpoint: mean survival time, dose: 200.0 mg/kg/injection, schedule: Q01DX001 (ip), vehicle: saline with Tween-80) 6 of 6.

For the compound `O=[N+]([O-])c1ccc2ccccc2c1-c1c([N+](=O)[O-])ccc2ccccc12`, the survivor count under setting [2] is recorded as 6 of 6.

For the compound `[N-]=[N+]=Nc1ccccc1C(=O)NCc1cnc(N)nc1N`, the survivor count under setting [2] is 6 of 6.

For `O=C(NNC(=O)c1c(F)c(F)c(F)c(F)c1F)c1c(F)c(F)c(F)c(F)c1F`, the survivor count under setting [5] is 1 of 6.

For `CN(C)N=C1CCCCCC1`, the survivor count under setting [6] was 1 of 6.

With `CCO[Si](OCC)OCC`, the survivor count runs as follows: (T/C endpoint: mean survival time, dose: 150.0 mg/kg/injection, schedule: Q01DX001 (ip), vehicle: saline) 1 of 6; under setting [6], 0 of 6.

Regarding `O=C1OCC/C1=C1/CCOC1`, under setting [3], the survivor count is reported as 0 of 3.

On to `CC(C)=[C-]N(C)C.[C-]#[O+].[C-]#[O+].[C-]#[O+].[C-]#[O+].[C-]#[O+].[Mn]`, for which the survivor count (T/C endpoint: mean survival time, dose: 50.0 mg/kg/injection, schedule: Q04DX002 (ip), vehicle: saline with Tween-80) is reported as 0 of 3.

As to `CC[Si](CC)(CC)c1ccc(CCNCCS)s1`, the survivor count (T/C endpoint: mean survival time, dose: 150.0 mg/kg/injection, schedule: Q01DX009 (ip), vehicle: saline) is on record as 1 of 6.

Regarding `CCOC(=O)CCC(NC(=O)N(CCCl)CCCl)C(=O)OCC` (stereo not drawn), the T/C (T/C endpoint: mean survival time, dose: 50.0 mg/kg/injection, schedule: Q01DX001 (ip), vehicle: saline) was 126 % of control; the T/C (T/C endpoint: mean survival time, dose: 400.0 mg/kg/injection, schedule: Q01DX001 (ip), vehicle: carboxymethylcellulose (CMC)) was 132 % of control; the T/C (T/C endpoint: mean survival time, dose: 600.0 mg/kg/injection, schedule: Q01DX001 (ip), vehicle: carboxymethylcellulose (CMC)) is 139 % of control.

Consider `CCOC(=O)c1ccc(N2C(=O)C=CC2=O)cc1`, for which the survivor count is on record as 0 of 3 (T/C endpoint: mean survival time, dose: 25.0 mg/kg/injection, schedule: Q01DX009 (ip), vehicle: saline); 0 of 3 (T/C endpoint: mean survival time, dose: 50.0 mg/kg/injection, schedule: Q01DX009 (ip), vehicle: saline); 0 of 3 (T/C endpoint: mean survival time, dose: 100.0 mg/kg/injection, schedule: Q01DX009 (ip), vehicle: saline); 0 of 3 under setting [7].

As for `N#CCCN1c2ccccc2Sc2ccccc21`, the survivor count (T/C endpoint: mean survival time, dose: 300.0 mg/kg/injection, schedule: Q04DX003 (ip), vehicle: saline) is reported as 0 of 6.

With `CCNc1nc(NC(C)C)nc(OC)n1`, the survivor count (T/C endpoint: mean survival time, dose: 400.0 mg/kg/injection, schedule: Q04DX003 (ip), vehicle: saline) is 3 of 6.

Turning to `COc1ccc(S(=O)(=O)N/N=C/C(=O)O)cc1`, the T/C runs as follows: (T/C endpoint: mean survival time, dose: 25.0 mg/kg/injection, schedule: Q01DX009 (ip), vehicle: saline with Tween-80) 131 % of control; (T/C endpoint: mean survival time, dose: 50.0 mg/kg/injection, schedule: Q04DX003 (ip), vehicle: other) 130 and 132 % of control; (T/C endpoint: mean survival time, dose: 100.0 mg/kg/injection, schedule: Q01DX009 (ip), vehicle: alkali diluted with water) 142 % of control; (T/C endpoint: mean survival time, dose: 100.0 mg/kg/injection, schedule: Q04DX003 (ip), vehicle: other) 134 and 143 % of control. Besides, the survivor count is, setting by setting: (T/C endpoint: mean survival time, dose: 200.0 mg/kg/injection, schedule: Q01DX009 (ip), vehicle: saline with Tween-80) 8 of 10; (T/C endpoint: mean survival time, dose: 400.0 mg/kg/injection, schedule: Q04DX003 (ip), vehicle: other) 4 of 10 and 5 of 6.

Consider `CC(C)(C)c1cc(CN2CCCC(O)C2)c(O)c(-c2ccccc2)c1` (stereo not drawn), for which the survivor count under setting [7] is on record as 1 of 6.

As for `CCC(=O)OCC1OC(n2cc(F)c(=O)[nH]c2=O)CC1OC(=O)CC` (stereo not drawn), the T/C is, setting by setting: (T/C endpoint: mean survival time, dose: 89.0 mg/kg/injection, schedule: Q01DX Z (ip), vehicle: saline) 139 % of control; (T/C endpoint: mean survival time, dose: 133.0 mg/kg/injection, schedule: Q01DX Z (ip), vehicle: saline) 136 % of control; (T/C endpoint: mean survival time, dose: 200.0 mg/kg/injection, schedule: Q01DX Z (ip), vehicle: saline) 136 % of control; (T/C endpoint: mean survival time, dose: 300.0 mg/kg/injection, schedule: Q01DX Z (ip), vehicle: saline) 145 % of control.

On to `O=C(O)c1ccc(C(=O)O)s1.[NH-]C1CCCCC1[NH-].[Pt+2]`, for which the T/C (T/C endpoint: mean survival time, dose: 10.0 mg/kg/injection, schedule: Q04DX003 (ip), vehicle: dextrose) was 146 % of control.

Turning to `[Cu+2].[NH-]CC(=O)O.[NH-]CC(=O)O`, the survivor count (T/C endpoint: mean survival time, dose: 20.0 mg/kg/injection, schedule: Q01DX009 (ip), vehicle: saline) is 0 of 6.

For the compound `COc1cc(NCc2ccc3nc(N)nc(N)c3c2C)cc(OC)c1OC` (tested in a mixture with another compound), the T/C is 130 % of control [5 of 6 alive] (T/C endpoint: median survival time, dose: 20.0 mg/kg/injection, schedule: Q01DX005 (ip), vehicle: water); 137 % of control (T/C endpoint: median survival time, dose: 40.0 mg/kg/injection, schedule: Q01DX005 (ip), vehicle: water); 130 % of control (T/C endpoint: median survival time, dose: 80.0 mg/kg/injection, schedule: Q01DX005 (ip), vehicle: water). In addition, for the setting “T/C endpoint: median survival time, dose: 160.0 mg/kg/injection, schedule: Q01DX005 (ip), vehicle: water”, the survivor count is recorded as 4 of 6.
